Test results from PMC3499479.
No constants are given. Whether binding was seen depends on the method and setting. Some binding calls cover weakened binding; strength is not graded here.

What was measured:
Assay in all cases: two-hybrid; FBX fused to Gal4-DB, ASK fused to Gal4-AD; yeast mating; selection on SD without Leu, Trp, His, Ade (high strength) or without Leu, Trp, His (low strength); every combination examined twice
[1] = target: T1, F-box (FBX) protein At1g30790 (Arabidopsis thaliana) (UniProt Q9SY20)
T1 sequence: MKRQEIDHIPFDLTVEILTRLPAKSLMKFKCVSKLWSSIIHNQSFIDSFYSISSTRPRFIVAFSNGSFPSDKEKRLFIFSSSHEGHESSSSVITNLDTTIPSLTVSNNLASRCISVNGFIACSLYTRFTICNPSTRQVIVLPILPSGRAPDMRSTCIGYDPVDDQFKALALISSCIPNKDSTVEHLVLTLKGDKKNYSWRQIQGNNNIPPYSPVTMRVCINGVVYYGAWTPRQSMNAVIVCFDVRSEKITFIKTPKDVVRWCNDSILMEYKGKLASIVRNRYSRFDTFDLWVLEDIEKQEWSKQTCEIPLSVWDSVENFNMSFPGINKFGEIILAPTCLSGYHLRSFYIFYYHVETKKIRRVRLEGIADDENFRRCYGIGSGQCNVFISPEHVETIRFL

[2] = target: T2, F-box (FBX) protein At2g31470 (Arabidopsis thaliana) (UniProt Q5BPS3)
T2 sequence: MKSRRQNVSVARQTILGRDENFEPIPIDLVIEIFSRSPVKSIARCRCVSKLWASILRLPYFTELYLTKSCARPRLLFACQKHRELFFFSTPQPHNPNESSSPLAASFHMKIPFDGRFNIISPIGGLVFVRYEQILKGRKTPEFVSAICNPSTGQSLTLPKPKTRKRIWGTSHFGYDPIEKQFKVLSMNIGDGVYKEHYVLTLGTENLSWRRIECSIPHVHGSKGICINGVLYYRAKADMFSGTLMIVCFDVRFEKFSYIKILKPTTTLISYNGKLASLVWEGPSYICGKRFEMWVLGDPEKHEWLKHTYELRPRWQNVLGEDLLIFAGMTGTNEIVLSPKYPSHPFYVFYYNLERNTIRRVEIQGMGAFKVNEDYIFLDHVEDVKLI

[3] = target: T3, F-box (FBX) protein At3g03360 (Arabidopsis thaliana) (UniProt Q84W80)
T3 sequence: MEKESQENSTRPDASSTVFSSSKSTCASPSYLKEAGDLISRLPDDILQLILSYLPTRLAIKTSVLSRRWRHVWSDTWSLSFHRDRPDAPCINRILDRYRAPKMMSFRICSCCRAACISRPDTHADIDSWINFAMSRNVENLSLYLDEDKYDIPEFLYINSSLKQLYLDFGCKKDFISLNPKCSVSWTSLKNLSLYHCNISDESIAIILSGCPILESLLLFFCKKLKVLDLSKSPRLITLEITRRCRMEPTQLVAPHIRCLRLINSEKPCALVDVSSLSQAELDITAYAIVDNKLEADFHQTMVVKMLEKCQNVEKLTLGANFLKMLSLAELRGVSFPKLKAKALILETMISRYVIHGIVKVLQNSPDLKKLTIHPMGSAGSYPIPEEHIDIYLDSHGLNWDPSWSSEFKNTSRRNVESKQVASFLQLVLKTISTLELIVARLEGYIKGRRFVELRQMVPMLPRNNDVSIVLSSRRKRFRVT

Measured: binding

B1: Arabidopsis SKP1-LIKE 14 (ASK14) (protein, UniProt O81057 1-149)
chain: MSSNKIVLSSSDGESFEVEEAVARKLKIVEHMIEDDCVVTEVPLQNVTGKILSIVVEYCKKHVVDEESDEFKTWDEEFMKKFDQPTVFQLLLAANYLNIKGLLDLSAQTVADRIKDKTPEEIREIFNIENDFTPEEEAAVRKENAWAFE
binds: all assays above
